PubChem BioAssay AID493246 | Drosophila RNAi Screening Center | 2011
In all, the deposit lists about 21,000 reagents; this is an unselected part of those with a known target gene and a result. Of all reagents, 429 (2%) are marked active. 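Values are raw and not normalised between plates; calls rest on per-plate z-scores that were not deposited.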 A number with no mark means an inactive call. Not given: the amount of reagent, the time to read-out.

Test: 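Genes fly cells need to grow and stay alive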 (primary screen)
Cells: Drosophila Kc and S2R+ cells
Knock-down reagent: long dsRNA against Drosophila genes
Measurement: 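Raw, unnormalised count of remaining cells in each well; per-plate z-scores of cell number underlie the calls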
Direction: Kc cell number and S2R+ cell number: higher = more cells remaining
Rule for the call: 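Active when the per-plate z-score of cell number is 3 or more in the direction of fewer cells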

gene knocked down | amplicon | Kc cell number, rep 1 | Kc cell number, rep 2 | S2R+ cell number, rep 1 | S2R+ cell number, rep 2
pelo (pelota) | DRSC03588 | 1.32e6 | 1.37e6 | 1.31e6 | 1.27e6
Aldh-III (Aldehyde dehydrogenase type III) | DRSC06047 | 1.38e6 | 1.48e6 | 9.82e5 | 1.16e6
MCPH1 (Microcephalin) | DRSC06309 | 1.35e6 | 1.52e6 | 8.18e5 | 1.10e6
MCPH1 (Microcephalin) | DRSC07308 | 1.74e6 | 1.71e6 | 1.31e6 | 1.46e6
CG15545 | DRSC15083 | 1.52e6 | 1.55e6 | 1.06e6 | 1.12e6
nocte (no circadian temperature entrainment) | DRSC18123 | 6.45e5 | – | 8.42e5 | –
CG5776 | DRSC02891 | 1.44e6 | 1.60e6 | 1.34e6 | 1.30e6
Inx6 (Innexin 6) | DRSC20579 | 1.63e6 | 1.71e6 | 1.16e6 | 1.28e6
CG4714 | DRSC06883 | 1.32e6 | 1.37e6 | 1.12e6 | 1.14e6
Tnpo (Transportin) | DRSC11309 | 1.29e6 | 1.34e6 | 9.85e5 | 1.00e6
Or65b (Odorant receptor 65b) | DRSC08809 | 1.45e6 | 1.43e6 | 1.11e6 | 1.26e6

Part of the list above in another layout:
| gene knocked down | amplicon | Kc cell number, rep 1 | Kc cell number, rep 2 | S2R+ cell number, rep 1 | S2R+ cell number, rep 2 |
| --- | --- | --- | --- | --- | --- |
| Inx6 (Innexin 6) | DRSC20579 | 1.63e6 | 1.71e6 | 1.16e6 | 1.28e6 |
| CG4714 | DRSC06883 | 1.32e6 | 1.37e6 | 1.12e6 | 1.14e6 |

Further records:
gene knocked down | amplicon | Kc cell number, rep 1 | Kc cell number, rep 2 | S2R+ cell number, rep 1 | S2R+ cell number, rep 2
VhaAC39-2 (Vacuolar H[+] ATPase AC39 subunit 2) | DRSC15609 | 1.59e6 | 1.65e6 | 1.07e6 | 1.18e6
gol (goliath) | DRSC04689 | 1.31e6 | 1.41e6 | 1.09e6 | 1.13e6
Dscam2 (Down syndrome cell adhesion molecule 2) | DRSC08869 | 1.40e6 | 1.48e6 | 9.88e5 | 1.11e6
Dscam2 (Down syndrome cell adhesion molecule 2) | DRSC10198 | 1.61e6 | 1.52e6 | 1.21e6 | 1.28e6
Dscam2 (Down syndrome cell adhesion molecule 2) | DRSC11018 | 1.53e6 | 1.41e6 | 1.10e6 | 1.20e6
Dscam2 (Down syndrome cell adhesion molecule 2) | DRSC11019 | 1.58e6 | 1.39e6 | 1.18e6 | 1.27e6
ClpX (Caseinolytic protease chaperone subunit) | DRSC15592 | 1.74e6 | 1.84e6 | 1.33e6 | 1.33e6
l(3)73Ah (lethal (3) 73Ah) | DRSC11359 | 1.35e6 | 1.37e6 | 1.23e6 | 1.26e6
Ror | DRSC03414 | 1.51e6 | 1.53e6 | 1.16e6 | 1.33e6
ema (endosomal maturation defective) | DRSC14536 | 1.37e6 | 1.61e6 | 8.53e5 | 9.70e5
CG8997 | DRSC01900 | 1.45e6 | 1.57e6 | 1.17e6 | 1.32e6
MED4 (Mediator complex subunit 4) | DRSC11014 | 1.44e6 | 1.49e6 | 1.13e6 | 1.08e6
CG34115 | DRSC03840 | 5.76e5 | – | 8.44e5 | –
